Assay results as given in paper PMC5725103.
These are yes or no findings as the source states them, for the method shown. In cells and extracts the contact can be indirect. Some binding calls cover weakened binding; strength is not graded here. For some assays here: Sequences can lack the tags named with a protein.

By UniProt entry, the sequences of proteins in these tests, tags left out.
UniProt P35222: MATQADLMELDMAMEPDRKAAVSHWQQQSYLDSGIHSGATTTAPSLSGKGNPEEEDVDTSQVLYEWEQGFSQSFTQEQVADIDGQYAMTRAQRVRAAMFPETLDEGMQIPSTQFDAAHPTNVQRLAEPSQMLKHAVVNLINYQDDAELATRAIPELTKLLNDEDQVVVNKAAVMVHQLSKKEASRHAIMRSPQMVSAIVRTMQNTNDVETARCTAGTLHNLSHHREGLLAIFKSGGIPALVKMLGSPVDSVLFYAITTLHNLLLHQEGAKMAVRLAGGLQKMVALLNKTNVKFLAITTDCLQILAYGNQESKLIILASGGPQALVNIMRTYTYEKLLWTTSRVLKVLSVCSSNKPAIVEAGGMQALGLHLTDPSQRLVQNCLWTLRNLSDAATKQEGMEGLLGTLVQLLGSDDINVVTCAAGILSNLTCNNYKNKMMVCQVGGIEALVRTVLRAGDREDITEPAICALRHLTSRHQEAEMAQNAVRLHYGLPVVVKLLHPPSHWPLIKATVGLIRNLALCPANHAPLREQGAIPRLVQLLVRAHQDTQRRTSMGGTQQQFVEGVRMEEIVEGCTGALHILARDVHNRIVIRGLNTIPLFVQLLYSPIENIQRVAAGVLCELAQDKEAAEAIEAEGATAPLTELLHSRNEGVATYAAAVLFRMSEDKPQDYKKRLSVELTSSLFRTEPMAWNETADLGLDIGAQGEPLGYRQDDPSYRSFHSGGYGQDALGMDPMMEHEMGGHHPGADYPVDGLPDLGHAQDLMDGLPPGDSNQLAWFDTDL

Experiments:
[1] = biological target: T1, aquaporin1 (AQP1) (human (endogenous in astrocytoma tissue)) (UniProt P29972); experiment: co-IP; astrocytoma tissue lysate in CO-IP lysis buffer (pH 7.4), precleared with Protein A, supernatant divided into three groups with different antibodies; Western blot
T1 sequence: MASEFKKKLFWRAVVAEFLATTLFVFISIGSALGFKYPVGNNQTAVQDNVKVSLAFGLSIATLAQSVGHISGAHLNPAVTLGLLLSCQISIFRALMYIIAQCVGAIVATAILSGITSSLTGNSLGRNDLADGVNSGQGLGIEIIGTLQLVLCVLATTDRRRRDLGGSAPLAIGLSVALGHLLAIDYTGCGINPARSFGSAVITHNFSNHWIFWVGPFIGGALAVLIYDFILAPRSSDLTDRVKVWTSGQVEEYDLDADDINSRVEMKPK

[2] = biological target: T2, 3×Flag-AQP1 fusion protein (human) (UniProt P29972); experiment: co-IP; 3×Flag-AQP1/LN229 cell lysate in CO-IP lysis buffer (pH 7.4), immunopurified with anti-Flag M2 affinity gel, eluted with Flag peptides; 3×Flag-vector/LN229 as control; Western blot
T2 sequence: T1 sequence

binding [1]: binds | binding [2]: binds
Substance: β-catenin (from UniProt P35222 1-781)
